Record: PubChem BioAssay AID743454 (Peter MacCallum Cancer Centre, 2014)
Test: 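Genes whose loss kills vorinostat-resistant colon cancer cells under vorinostat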 (primary screen). Cell system: human HCT116-VR colon cancer cells, selected for vorinostat resistance. Reagents: siRNA pool against human genes, 40 nM siRNA pool. Timing: vorinostat for 24 h, read-out about 72 h after transfection. Treatment: vorinostat at 2.5 µM final. Measured: 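Two measures, CellTiter-Fluor viability and luminescent caspase 3/7 activity, each as fold change against same-plate mock wells, mean of duplicates, then screen-wide robust z-score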. Scale: viability robust z-score: higher = more viable cells than screen typical; caspase robust z-score: higher = more caspase 3/7 activity than screen typical. Call rule: 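a knock-down is a hit when classed RV1 or RV2 for lowered viability, or CA1 or CA2 for caspase activation; those lethal without drug were dropped; hits were retested singly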.
This is one part, drawn at random, of about 18,000 deposited reagents. 450 of all reagents (2.5%) were called active. 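Single biological run; no consistent viability z cut-off exists, so the class columns, not z-scores, define the calls.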 Unmarked entries are inactive.

no.	gene	viability hit class	caspase hit class	viability robust z-score	caspase robust z-score
1	RHEB (Ras homolog, mTORC1 binding)	no change	no change	-0.07	-0.97
2	TSEN34 (tRNA splicing endonuclease subunit 34)	no change	no change	1.51	0.94
3	TAS2R40 (taste 2 receptor member 40)	no change	no change	-1.06	0.55
4	KRT27 (keratin 27)	no change	no change	0.55	-0.81
5	POLRMT (RNA polymerase mitochondrial)	no change	no change	1.04	-0.01
6	TRAPPC14 (trafficking protein particle complex subunit 14)	no change	no change	0.63	0.04
7	KIAA0753	no change	no change	0.25	-0.88
8	EPB41L4A (erythrocyte membrane protein band 4.1 like 4A)	no change	no change	0.52	-0.66
9	TSPAN10 (tetraspanin 10)	no change	no change	0.52	-0.97
10	TNFRSF12A (TNF receptor superfamily member 12A)	no change	no change	0.56	2.14
11	SYK (spleen associated tyrosine kinase)	no change	no change	-0.7	0.36
12	LRCH2	no change	no change	-0.67	-0.76
13	WFDC10A (WAP four-disulfide core domain 10A)	no change	no change	-0.66	1.26
14	SLC28A3	no change	no change	-1.46	-0.96
15	HAPSTR1 (HUWE1 associated protein modifying stress responses)	no change	no change	0.67	-0.3
16	UGT1A4 (UDP glucuronosyltransferase family 1 member A4)	no change	no change	-0.18	0.4
17	RPS20 (ribosomal protein S20)	no change	no change	-6.38	-1.61
18	VHL (von Hippel-Lindau tumor suppressor)	no change	no change	-1.19	3.38
19	TAFA2 (TAFA chemokine like family member 2)	no change	no change	-1.12	0.19
20	SULT1B1 (sulfotransferase family 1B member 1)	no change	no change	0.16	1.47
21	MFSD6L (major facilitator superfamily domain containing 6 like)	no change	no change	0.04	-0.32
22	MEIG1 (meiosis/spermiogenesis associated 1)	no change	no change	0.34	-0.99
23	DENND1C (DENN domain containing 1C)	no change	no change	-1.29	-0.8
